Measured values as given in PMC11637432.
Results are given in words; binding and its absence hold for the method and conditions named. Binding seen in cells or lysates may run through a third protein. A result given as binding can be weak or reduced; the word gives no strength. Where a sequence is shown, tags or fusion partners need not be part of it.

Experiments:
[1] = target: second intracellular loop of MC1R; test: pull-down; purified intracellular loops and C-terminus of MC1R (GST-tagged) on Glutathione Sepharose 4B beads incubated with HEK293T lysate expressing BBS2-HA, 4 h at 4°C; GST buffer (150 mM NaCl, 1 mM MgCl2, 50 mM Hepes, 1 mM EGTA, 0.5% Triton X-100, pH 7.4); only the target purified
[2] = target: third intracellular loop of MC1R; test: as above

B1: BBS2-HA (protein, UniProt Q9BXC9 1-721)
chain: MLLPVFTLKLRHKISPRMVAIGRYDGTHPCLAAATQTGKVFIHNPHTRNQHVSASRVFQSPLESDVSLLSINQAVSCLTAGVLNPELGYDALLVGTQTNLLAYDVYNNSDLFYREVADGANAIVLGTLGDISSPLAIIGGNCALQGFNHEGSDLFWTVTGDNVNSLALCDFDGDGKKELLVGSEDFDIRVFKEDEIVAEMTETEIVTSLCPMYGSRFGYALSNGTVGVYDKTSRYWRIKSKNHAMSIHAFDLNSDGVNELITGWSNGKVDARSDRTGEVIFKDNFSSAIAGVVEGDYRMDGHIQLICCSVDGEIRGYLPGTAEMRGNLMDTSAEQDLIRELSQKKQNLLLELRNYEENAKAELASPLNEADGHRGIIPANTRLHTTLSVSLGNETQTAHTELRISTSNDTIIRAVLIFAEGIFTGESHVVHPSIHNLSSSICIPIVPPKDVPVDLHLKAFVGYRSSTQFHVFESTRQLPRFSMYALTSLDPASEPISYVNFTIAERAQRVVVWLGQNFLLPEDTHIQNAPFQVCFTSLRNGGHLHIKIKLSGEITINTDDIDLAGDIIQSMASFFAIEDLQVEADFPVYFEELRKVLVKVDEYHSVHQKLSADMADHSNLIRSLLVGAEDARLMRDMKTMKSRYMELYDLNRDLLNGYKIRCNNHTELLGNLKAVNQAIQRAGRLRVGKPKNQVITACRDAIRSNNINTLFKIMRVGTASS
[1]
  binding: binds
[2]
  binding: binds
